No constants are given. Whether binding was seen depends on the method and setting. In cells and extracts the contact can be indirect. Some results given as binding are weak or reduced against the parent protein; the word gives no strength.
Legend:
[1] = target: T1, protein with Protein ID peg.804 (β subunit of the monooxygenase from Rhodococcus wratislaviensis C31-06) (Rhodococcus wratislaviensis); test: conclusion from the gel filtration and SDS-PAGE of the co-purified proteins in Example 7
T1 sequence: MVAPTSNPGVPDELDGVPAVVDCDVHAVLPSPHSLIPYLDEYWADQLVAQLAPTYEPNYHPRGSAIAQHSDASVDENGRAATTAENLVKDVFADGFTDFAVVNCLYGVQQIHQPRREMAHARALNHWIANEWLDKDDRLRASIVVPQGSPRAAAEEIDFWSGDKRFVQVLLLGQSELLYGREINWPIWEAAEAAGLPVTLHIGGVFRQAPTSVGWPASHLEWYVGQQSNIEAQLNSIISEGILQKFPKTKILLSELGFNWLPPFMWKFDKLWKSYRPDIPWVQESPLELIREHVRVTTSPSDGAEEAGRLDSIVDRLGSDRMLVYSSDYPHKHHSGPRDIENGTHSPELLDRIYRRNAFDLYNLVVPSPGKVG

[2] = target: T1, protein with Protein ID peg.804 (β subunit of the monooxygenase from Rhodococcus wratislaviensis C31-06) (Rhodococcus wratislaviensis); test: co-purification on HisTALON Superflow, then gel filtration (Superdex 200 Increase; approximately 180,000 against assumed subunit weights of 42,000 and 43,000) and SDS-PAGE

binding [1]: binds
binding [2]: binds
B1: protein with Protein ID peg.803 (α subunit of the monooxygenase from Rhodococcus wratislaviensis C31-06) (enzyme)
chain: MTIIEHGSLGTLPAPSVTTGIVDADIHPVPQDGALEPYLDDRWKKHIREYGVRTTTGLQFISEYPQMYGGAMRADAWPESGYPGSDRELLRTQLLDKHNIQLGVLQCLAPGGQTLNPAGQALNQELAAALCRATNDWQLEHLVYPDPRMRAAIPVTFETPDYAVAEIERVGADPGVVAVLGTSKTLEPLGSRKYWPIYEASVAQNLPIQFHLSQGGGHANTGTGWTSYHTEYHTGHVQSFQSQLLSLVLSGTFDRFPTLKVMFVEGNVAHFAPLIQRMDYTWETLRGELPDLQRKPSEYIRDHIWASTQPIDEPEKPEHLAELLEEFCGDNVVFATDYPHFDFDDPETAFPRSFPVDLRDKILRGNGMRFFGVTNQAD
